From patent US20130130315A1 (ADVANCECOR, published 2013)
These are yes or no findings as the source states them, for the method shown. Some entries that bind do so weakly or less than the wild type. For part of these data: Sequences can lack the tags named with a protein.

Amino acid sequences for entries named in this document (tags omitted). A change or cut given only in a name is not applied to a line headed by its entry.
UniProt P02453: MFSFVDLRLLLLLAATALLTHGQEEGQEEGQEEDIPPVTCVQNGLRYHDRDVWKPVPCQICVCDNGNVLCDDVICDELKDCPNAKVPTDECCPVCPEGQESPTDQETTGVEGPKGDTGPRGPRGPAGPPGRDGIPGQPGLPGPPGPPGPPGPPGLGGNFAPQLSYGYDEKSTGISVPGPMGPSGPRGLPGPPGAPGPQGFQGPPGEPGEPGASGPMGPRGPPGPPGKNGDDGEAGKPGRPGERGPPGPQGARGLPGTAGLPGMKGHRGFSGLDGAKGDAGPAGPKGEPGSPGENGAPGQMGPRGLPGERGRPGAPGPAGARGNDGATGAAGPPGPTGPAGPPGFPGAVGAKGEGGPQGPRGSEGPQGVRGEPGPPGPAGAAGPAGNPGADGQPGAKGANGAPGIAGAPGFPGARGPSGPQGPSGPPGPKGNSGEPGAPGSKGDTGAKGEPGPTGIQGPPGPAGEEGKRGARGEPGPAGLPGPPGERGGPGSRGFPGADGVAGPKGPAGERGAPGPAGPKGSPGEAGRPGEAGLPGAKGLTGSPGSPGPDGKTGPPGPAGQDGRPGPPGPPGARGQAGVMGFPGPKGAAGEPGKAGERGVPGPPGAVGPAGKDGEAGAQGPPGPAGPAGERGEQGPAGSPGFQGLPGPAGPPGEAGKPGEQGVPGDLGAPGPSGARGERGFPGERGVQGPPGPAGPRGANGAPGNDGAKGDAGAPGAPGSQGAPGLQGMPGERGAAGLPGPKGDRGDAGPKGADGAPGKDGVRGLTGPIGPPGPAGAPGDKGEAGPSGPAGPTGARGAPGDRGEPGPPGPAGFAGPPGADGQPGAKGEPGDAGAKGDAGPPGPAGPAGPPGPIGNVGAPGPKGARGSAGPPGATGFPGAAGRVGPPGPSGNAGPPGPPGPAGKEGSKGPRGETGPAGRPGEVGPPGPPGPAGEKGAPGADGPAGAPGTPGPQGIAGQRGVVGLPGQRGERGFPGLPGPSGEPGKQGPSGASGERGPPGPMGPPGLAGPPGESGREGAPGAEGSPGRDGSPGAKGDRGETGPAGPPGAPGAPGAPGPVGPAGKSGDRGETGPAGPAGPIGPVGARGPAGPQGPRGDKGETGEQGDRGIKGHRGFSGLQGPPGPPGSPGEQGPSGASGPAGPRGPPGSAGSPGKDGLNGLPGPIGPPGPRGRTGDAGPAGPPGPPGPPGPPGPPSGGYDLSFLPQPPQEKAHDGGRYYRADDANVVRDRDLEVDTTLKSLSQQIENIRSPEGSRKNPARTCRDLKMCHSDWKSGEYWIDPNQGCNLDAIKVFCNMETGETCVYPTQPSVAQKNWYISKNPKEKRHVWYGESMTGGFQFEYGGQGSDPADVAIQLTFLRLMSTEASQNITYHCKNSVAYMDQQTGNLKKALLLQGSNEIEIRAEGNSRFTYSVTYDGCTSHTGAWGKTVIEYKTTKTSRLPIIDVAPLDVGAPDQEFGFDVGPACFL

Assays:
bovine collagen I [1] = target: T1, bovine collagen I (bovine, UniProt P02453 162-1217; P02465 80-1117, limits assumed); assay: ELISA on immobilized bovine collagen I (FIG. 9)
T1 construct: also called immobilized collagen I; soluble collagen I

bovine collagen I [2] = target: T1, bovine collagen I; assay: ELISA on immobilized bovine collagen I; specificity confirmed by competition with soluble collagen I
CD133 protein [3] = target: T2, CD133 protein (UniProt O43490); assay: competitive cellular ELISA on fixed AC133/293 cells; competitor of 2 nM W6B3H10 mAb
T2 sequence (looked up): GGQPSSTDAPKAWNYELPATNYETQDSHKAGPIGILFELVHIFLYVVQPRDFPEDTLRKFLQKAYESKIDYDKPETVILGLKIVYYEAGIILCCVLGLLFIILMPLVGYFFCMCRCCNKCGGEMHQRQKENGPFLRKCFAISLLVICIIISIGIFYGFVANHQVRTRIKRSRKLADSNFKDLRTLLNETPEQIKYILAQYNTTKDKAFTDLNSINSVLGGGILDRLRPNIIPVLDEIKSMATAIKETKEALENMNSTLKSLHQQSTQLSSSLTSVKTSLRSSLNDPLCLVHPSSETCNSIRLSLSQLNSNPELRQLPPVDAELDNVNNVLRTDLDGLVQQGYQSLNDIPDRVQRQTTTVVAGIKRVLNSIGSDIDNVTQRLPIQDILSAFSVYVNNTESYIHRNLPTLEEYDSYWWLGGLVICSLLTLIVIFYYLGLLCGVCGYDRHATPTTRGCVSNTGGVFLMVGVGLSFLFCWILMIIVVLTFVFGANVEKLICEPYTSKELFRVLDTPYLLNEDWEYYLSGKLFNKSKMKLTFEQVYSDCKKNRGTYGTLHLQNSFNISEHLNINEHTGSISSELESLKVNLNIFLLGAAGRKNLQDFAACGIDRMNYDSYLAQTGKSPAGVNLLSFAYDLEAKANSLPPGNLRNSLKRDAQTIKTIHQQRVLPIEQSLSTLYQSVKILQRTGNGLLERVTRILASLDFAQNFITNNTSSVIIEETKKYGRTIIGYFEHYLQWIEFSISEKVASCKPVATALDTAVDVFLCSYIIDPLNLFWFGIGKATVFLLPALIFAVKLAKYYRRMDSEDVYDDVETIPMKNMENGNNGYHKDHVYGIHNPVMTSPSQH

CD133 protein [4] = target: T2, CD133 protein; assay: phage display selection on CD133 membrane preparations and phage FACS on AC133/293 cells
CD133 protein [5] = target: T2, CD133 protein; assay: cellular ELISA, threefold dilution series on fixed AC133/293 cells
CD133 protein [6] = target: T2, CD133 protein; assay: cellular ELISA on fixed AC133/293 cells
CD133 protein [7] = target: T2, CD133 protein; assay: cellular ELISA on fixed AC133/293 cells (FIG. 5)
bovine collagen I [8] = target: T1, bovine collagen I; assay: ELISA on immobilized bovine collagen I
Description: Fc-protein was used as negative control.
An Immulon 2 HB 96-well plate (NUNC, Rochester, N.Y.) was coated with 0.1 ml 1 μg/ml bovine collagen I in 15 mM Na₂CO3, 35 mM NaHCO3, pH 9.6 o/n at 4° C. Wells were washed with PBS-T, blocked with 0.1 ml 1× RotiBlock (Roth, Karlsruhe, Germany) in PBS-T for one hour and washed again before addition of 0.1 ml of threefold dilutions of fusion protein. After one hour incubation at RT with shaking, wells were washed with PBS-T. Wells were incubated with 0.1 ml anti-human IgG-HRP (Dianova, Hamburg, Germany) 1:10000 in PBS-T for one hour at RT with shaking. The plate was washed with PBS-T and incubated with 0.1 ml 1-Step Ultra TMB-ELISA (PIERCE, Rockford, Ill.). After blue staining had developed sufficiently, reactions were stopped by addition of 0.1 ml 1 M H₂SO₄. Absorbance was measured at 450 nm and 595 nm as a reference wavelength using an infinite F200 plate reader (TECAN, Männedorf, Switzerland). EC₅₀ values were calculated with Sigma Plot 11 using Four Parameter Logistic.

B1: fusion protein scFv-lh-GPVI-FcIgG2 (Fc fusion)
chain: DILMTQSPKSMSMSLGERVTLSCKASENVDTYVSWYQQKPEQSPKVLIYGASNRYTGVPDRFTGSGSATDFSLTISNVQAEDLADYHCGQSYRYPLTFGAGTKLELKGGGGSGGGGSGGGGSEVQLQQSGPDLMKPGASVKISCKASGYSFTNYYVHWVKQSLDKSLEWIGYVDPFNGDFNYNQKFKDKATLTVDKSSSTAYMHLSSLTSEDSAVYYCARGGLDWYDTSYWYFDVWGAGTAVTVSSQSGPLPKPSLQALPSSLVPLEKPVTLRCQGPPGVDLYRLEKLSSSRYQDQAVLFIPAMKRSLAGRYRCSYQNGSLWSLPSDQLELVATGVFAKPSLSAQPGPAVSSGGDVTLQCQTRYGFDQFALYKEGDPAPYKNPERWYRASFPIITVTAAHSGTYRCYSFSSRDPYLWSAPSDPLELVVTGTSVTPSRLPTEPPSSVAEFSEATAELTVSFTNKVFTTETSRSITTSPKESDSPAGPARQYYTKGNGGRVECPPCPAPPVAGPSVFLFPPKPKDTLMISRTPEVTCVVVDVSHEDPEVQFNWYVDGVEVHNAKTKPREEQFNSTFRVVSVLTVVHQDWLNGKEYKCKVSNKGLPAPIEKTISKTKGQPREPQVYTLPPSREEMTKNQVSLTCLVKGFYPSDIAVEWESNGQPENNYKTTPPMLDSDGSFFLYSKLTVDKSRWQQGNVFSCSVMHEALHNHYTQKSLSLSPGK
notes: also called parental fusion protein; mouse fusion protein
- binding (bovine collagen I [1]): binds
- binding (bovine collagen I [2]): binds
- binding (CD133 protein [3]): binds

B2: phage clone 27 (humanized single chain antibody derived from phage clone 27) (scFv)
scFv: DIQMTQSPKSLSMSVGDRVTITCKASENVDTYVSWYQQKPGKAPKVLIYGASNRYTGVPSRFSGSGSATDFTLTISSLQPEDFATYHCGQSYRYPLTFGQGTKVEIKGGGGSGGGGSGGGGSEVQLVQSGAEVKKPGASVKVSCKASGYSFTNYYVHWVKQAPGQGLEWMGYVDPFNGDFNYNQKFKDRVTLTVDTSTPTAYMELSSLTPEDTAVYYCARGGLDWYDTSYWYFDVWGQGTLVTVSS
notes: not shown: fusion to the phage coat protein; display format not described
- binding (CD133 protein [4]): binds

B3: single chain antibody scFv-lh (scFv, not shown: a dimerising Fc or GST)
scFv: DILMTQSPKSMSMSLGERVTLSCKASENVDTYVSWYQQKPEQSPKVLIYGASNRYTGVPDRFTGSGSATDFSLTISNVQAEDLADYHCGQSYRYPLTFGAGTKLELKGGGGSGGGGSGGGGSEVQLQQSGPDLMKPGASVKISCKASGYSFTNYYVHWVKQSLDKSLEWIGYVDPFNGDFNYNQKFKDKATLTVDKSSSTAYMHLSSLTSEDSAVYYCARGGLDWYDTSYWYFDVWGAGTAVTVSS
notes: Orientation light-heavy; Made in CHO cells and in E. coli (pET22b); also called mouse single chain antibody; parental mouse single chain antibody
- binding (CD133 protein [5]): binds
- binding (CD133 protein [6]): binds
- binding (CD133 protein [7]): binds

B4: humanized fusion protein hscFv-lh-GPVI-Fc (Fc fusion)
chain: DIQMTQSPKSLSASVGDRVTITCKASENVDTYVSWYQQKPGKAPKVLIYGASNRYTGVPSRFTGSGSATDFTLTISSLQPEDFATYYCGQSYRYPLTFAQGTKVEIKGGGGSGGGGSGGGGSEVQLVQSGAEVKKPGASVKVSCKASGYSFTNYYVHWVKQAPGQGLEWMGYVDPFNGDFNYNQKFKDRVTLTVDTSTSTAYMELSSLTSEDRAVYYCARGGLDWYDTSYWYFDVWGQGTLVTVSSQSGPLPKPSLQALPSSLVPLEKPVTLRCQGPPGVDLYRLEKLSSSRYQDQAVLFIPAMKRSLAGRYRCSYQNGSLWSLPSDQLELVATGVFAKPSLSAQPGPAVSSGGDVTLQCQTRYGFDQFALYKEGDPAPYKNPERWYRASFPIITVTAAHSGTYRCYSFSSRDPYLWSAPSDPLELVVTGTSVTPSRLPTEPPSSVAEFSEATAELTVSFTNKVFTTETSRSITTSPKESDSPAGPARQYYTKGNGGRVECPPCPAPPVAGPSVFLFPPKPKDTLMISRTPEVTCVVVDVSHEDPEVQFNWYVDGVEVHNAKTKPREEQFNSTFRVVSVLTVVHQDWLNGKEYKCKVSNKGLPAPIEKTISKTKGQPREPQVYTLPPSREEMTKNQVSLTCLVKGFYPSDIAVEWESNGQPENNYKTTPPMLDSDGSFFLYSKLTVDKSRWQQGNVFSCSVMHEALHNHYTQKSLSLSPGK
- binding (CD133 protein [6]): binds
- binding (bovine collagen I [8]): binds
